{"source": "paper PMC8384837", "conditions_in_all_cases": "yeast three-hybrid, YBZ-1, SC-Leu-His + 0.5 mM 3-AT, 4 days", "key": {"[1]": {"target": "T1, PUM1 PUF domain R4-PFY N971P + H972F + Q975Y (Homo sapiens) (UniProt Q14671)", "T1 sequence": "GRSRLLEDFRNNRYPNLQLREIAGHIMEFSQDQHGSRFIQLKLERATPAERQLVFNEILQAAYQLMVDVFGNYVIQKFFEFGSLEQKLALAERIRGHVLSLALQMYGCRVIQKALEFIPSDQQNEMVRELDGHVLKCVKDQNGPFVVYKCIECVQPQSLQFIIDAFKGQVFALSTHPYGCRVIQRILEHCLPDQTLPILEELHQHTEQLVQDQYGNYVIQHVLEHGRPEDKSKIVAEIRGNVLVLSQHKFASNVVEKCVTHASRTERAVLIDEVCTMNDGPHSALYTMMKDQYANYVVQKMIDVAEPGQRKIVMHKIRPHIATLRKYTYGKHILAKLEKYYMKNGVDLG"}, "[2]": {"target": "T2, PUM1 PUF domain R4-PHA N971P + Q975A (UniProt Q14671)", "T2 sequence": "T1 sequence with F145H, Y148A"}, "[3]": {"target": "T3, PUM1 PUF domain R4-PHG N971P + Q975G (UniProt Q14671)", "T3 sequence": "T1 sequence with F145H, Y148G"}, "[4]": {"target": "T4, PUM1 PUF domain R4-PHQ N971P (UniProt Q14671)", "T4 sequence": "T1 sequence with F145H, Y148Q"}, "[5]": {"target": "T5, PUM1 PUF domain R4-PHS N971P + Q975S (UniProt Q14671)", "T5 sequence": "T1 sequence with F145H, Y148S"}, "[6]": {"target": "T6, PUM1 PUF domain R4-PHV N971P + Q975V (UniProt Q14671)", "T6 sequence": "T1 sequence with F145H, Y148V"}, "[7]": {"target": "T7, PUM1 PUF domain R4-PRC N971P + H972R + Q975C (UniProt Q14671)", "T7 sequence": "T1 sequence with F145R, Y148C"}, "[8]": {"target": "T8, PUM1 PUF domain R4-PRQ N971P + H972R (UniProt Q14671)", "T8 sequence": "T1 sequence with F145R, Y148Q"}, "[9]": {"target": "T9, PUM1 PUF domain R4-PTC N971P + H972T + Q975C (UniProt Q14671)", "T9 sequence": "T1 sequence with F145T, Y148C"}, "[10]": {"target": "T10, PUM1 PUF domain R4-PWG N971P + H972W + Q975G (UniProt Q14671)", "T10 sequence": "T1 sequence with F145W, Y148G"}, "[11]": {"target": "T11, PUM1 PUF domain R4-PWR N971P + H972W + Q975R (UniProt Q14671)", "T11 sequence": "T1 sequence with F145W, Y148R"}, "[12]": {"target": "T12, PUM1 PUF domain R4-PWS N971P + H972W + Q975S (UniProt Q14671)", "T12 sequence": "T1 sequence with F145W, Y148S"}, "[13]": {"target": "T13, PUM1 PUF domain R4-PYA N971P + H972Y + Q975A (UniProt Q14671)", "T13 sequence": "T1 sequence with F145Y, Y148A"}, "[14]": {"target": "T14, PUM1 PUF domain R4-PYE N971P + H972Y + Q975E (Homo sapiens) (UniProt Q14671)", "T14 sequence": "T1 sequence with F145Y, Y148E"}, "[15]": {"target": "T15, PUM1 PUF domain R4-PYG N971P + H972Y + Q975G (Homo sapiens) (UniProt Q14671)", "T15 sequence": "T1 sequence with F145Y, Y148G"}, "[16]": {"target": "T16, PUM1 PUF domain R4-PYR N971P + H972Y + Q975R (UniProt Q14671)", "T16 sequence": "T1 sequence with F145Y, Y148R"}, "[17]": {"target": "T17, PUM1 PUF domain R4-PYS N971P + H972Y + Q975S (Homo sapiens) (UniProt Q14671)", "T17 sequence": "T1 sequence with F145Y, Y148S"}, "[18]": {"target": "T18, PUM1 PUF domain R4-QGA N971Q + H972G + Q975A (UniProt Q14671)", "T18 sequence": "T1 sequence with P144Q, F145G, Y148A"}, "[19]": {"target": "T19, PUM1 PUF domain R4-QGG N971Q + H972G + Q975G (UniProt Q14671)", "T19 sequence": "T1 sequence with P144Q, F145G, Y148G"}, "[20]": {"target": "T20, PUM1 PUF domain R4-QHR N971Q + Q975R (UniProt Q14671)", "T20 sequence": "T1 sequence with P144Q, F145H, Y148R"}, "[21]": {"target": "T21, PUM1 PUF domain R4-QPG N971Q + H972P + Q975G (UniProt Q14671)", "T21 sequence": "T1 sequence with P144Q, F145P, Y148G"}, "[22]": {"target": "T22, PUM1 PUF domain R4-QPS N971Q + H972P + Q975S (UniProt Q14671)", "T22 sequence": "T1 sequence with P144Q, F145P, Y148S"}, "[23]": {"target": "T23, PUM1 PUF domain R4-QRG N971Q + H972R + Q975G (Homo sapiens) (UniProt Q14671)", "T23 sequence": "T1 sequence with P144Q, F145R, Y148G"}, "[24]": {"target": "T24, PUM1 PUF domain R4-RCG N971R + H972C + Q975G (UniProt Q14671)", "T24 sequence": "T1 sequence with P144R, F145C, Y148G"}, "[25]": {"target": "T25, PUM1 PUF domain R4-RGG N971R + H972G + Q975G (Homo sapiens) (UniProt Q14671)", "T25 sequence": "T1 sequence with P144R, F145G, Y148G"}, "[26]": {"target": "T26, PUM1 PUF domain R4-RGY N971R + H972G + Q975Y (UniProt Q14671)", "T26 sequence": "T1 sequence with P144R, F145G"}, "[27]": {"target": "T27, PUM1 PUF domain R4-RHA N971R + Q975A (UniProt Q14671)", "T27 sequence": "T1 sequence with P144R, F145H, Y148A"}, "[28]": {"target": "T28, PUM1 PUF domain R4-RHG N971R + Q975G (Homo sapiens) (UniProt Q14671)", "T28 sequence": "T1 sequence with P144R, F145H, Y148G"}, "[29]": {"target": "T29, PUM1 PUF domain R4-RHL N971R + Q975L (UniProt Q14671)", "T29 sequence": "T1 sequence with P144R, F145H, Y148L"}, "[30]": {"target": "T30, PUM1 PUF domain R4-RHS N971R + Q975S (UniProt Q14671)", "T30 sequence": "T1 sequence with P144R, F145H, Y148S"}}, "note": "Positions count from the first letter of the chain named. The list shows a part of the results. For part of these data: At the low end of the ranking the order means little.", "data": [{"sequence": "GGCUAGAACUAGUGGAUCCCCCGGCGCCCGGCGGCUCGAGCCCGGGUAAGUGUAGAUAGUCUGCAUGCCGCCGGGCGCCAUGCCUGCAGGUCGACUCUAGAAAACAUG", "values": [{"measurement": "binding signal (log2 enrichment (interaction score))", "setting": "[1]", "value": 1.62}, {"measurement": "binding signal (log2 enrichment (interaction score))", "setting": "[2]", "value": "< -6.74"}, {"measurement": "binding signal (log2 enrichment (interaction score))", "setting": "[3]", "value": "< -6.32"}, {"measurement": "binding signal (log2 enrichment (interaction score))", "setting": "[4]", "value": "< -5.87"}, {"measurement": "binding signal (log2 enrichment (interaction score))", "setting": "[5]", "value": "< -4.86"}, {"measurement": "binding signal (log2 enrichment (interaction score))", "setting": "[6]", "value": "< -6.36"}, {"measurement": "binding signal (log2 enrichment (interaction score))", "setting": "[7]", "value": "< -6.58"}, {"measurement": "binding signal (log2 enrichment (interaction score))", "setting": "[8]", "value": "< -6.73"}, {"measurement": "binding signal (log2 enrichment (interaction score))", "setting": "[9]", "value": "< -7.06"}, {"measurement": "binding signal (log2 enrichment (interaction score))", "setting": "[10]", "value": "< -6.4"}, {"measurement": "binding signal (log2 enrichment (interaction score))", "setting": "[11]", "value": "< -7.76"}, {"measurement": "binding signal (log2 enrichment (interaction score))", "setting": "[12]", "value": "< -6.26"}, {"measurement": "binding signal (log2 enrichment (interaction score))", "setting": "[13]", "value": "< -5.84"}, {"measurement": "binding signal (log2 enrichment (interaction score))", "setting": "[14]", "value": "< -5.04"}, {"measurement": "binding signal (log2 enrichment (interaction score))", "setting": "[15]", "value": -4.48}, {"measurement": "binding signal (log2 enrichment (interaction score))", "setting": "[16]", "value": "< -7.36"}, {"measurement": "binding signal (log2 enrichment (interaction score))", "setting": "[17]", "value": -2.67}, {"measurement": "binding signal (log2 enrichment (interaction score))", "setting": "[18]", "value": "< -6.13"}, {"measurement": "binding signal (log2 enrichment (interaction score))", "setting": "[19]", "value": "< -6.79"}, {"measurement": "binding signal (log2 enrichment (interaction score))", "setting": "[20]", "value": -3.39}, {"measurement": "binding signal (log2 enrichment (interaction score))", "setting": "[21]", "value": "< -7.73"}, {"measurement": "binding signal (log2 enrichment (interaction score))", "setting": "[22]", "value": "< -6.88"}, {"measurement": "binding signal (log2 enrichment (interaction score))", "setting": "[23]", "value": -2}, {"measurement": "binding signal (log2 enrichment (interaction score))", "setting": "[24]", "value": "< -8.07"}, {"measurement": "binding signal (log2 enrichment (interaction score))", "setting": "[25]", "value": -3.56}, {"measurement": "binding signal (log2 enrichment (interaction score))", "setting": "[26]", "value": "< -6.1"}, {"measurement": "binding signal (log2 enrichment (interaction score))", "setting": "[27]", "value": "< -5.33"}, {"measurement": "binding signal (log2 enrichment (interaction score))", "setting": "[28]", "value": -0.93}, {"measurement": "binding signal (log2 enrichment (interaction score))", "setting": "[29]", "value": "< -5.82"}, {"measurement": "binding signal (log2 enrichment (interaction score))", "setting": "[30]", "value": "< -5.41"}]}]}
